The source of these data is article PMC5813027.

By UniProt entry, the sequences of proteins in these tests, tags left out.
UniProt P33176: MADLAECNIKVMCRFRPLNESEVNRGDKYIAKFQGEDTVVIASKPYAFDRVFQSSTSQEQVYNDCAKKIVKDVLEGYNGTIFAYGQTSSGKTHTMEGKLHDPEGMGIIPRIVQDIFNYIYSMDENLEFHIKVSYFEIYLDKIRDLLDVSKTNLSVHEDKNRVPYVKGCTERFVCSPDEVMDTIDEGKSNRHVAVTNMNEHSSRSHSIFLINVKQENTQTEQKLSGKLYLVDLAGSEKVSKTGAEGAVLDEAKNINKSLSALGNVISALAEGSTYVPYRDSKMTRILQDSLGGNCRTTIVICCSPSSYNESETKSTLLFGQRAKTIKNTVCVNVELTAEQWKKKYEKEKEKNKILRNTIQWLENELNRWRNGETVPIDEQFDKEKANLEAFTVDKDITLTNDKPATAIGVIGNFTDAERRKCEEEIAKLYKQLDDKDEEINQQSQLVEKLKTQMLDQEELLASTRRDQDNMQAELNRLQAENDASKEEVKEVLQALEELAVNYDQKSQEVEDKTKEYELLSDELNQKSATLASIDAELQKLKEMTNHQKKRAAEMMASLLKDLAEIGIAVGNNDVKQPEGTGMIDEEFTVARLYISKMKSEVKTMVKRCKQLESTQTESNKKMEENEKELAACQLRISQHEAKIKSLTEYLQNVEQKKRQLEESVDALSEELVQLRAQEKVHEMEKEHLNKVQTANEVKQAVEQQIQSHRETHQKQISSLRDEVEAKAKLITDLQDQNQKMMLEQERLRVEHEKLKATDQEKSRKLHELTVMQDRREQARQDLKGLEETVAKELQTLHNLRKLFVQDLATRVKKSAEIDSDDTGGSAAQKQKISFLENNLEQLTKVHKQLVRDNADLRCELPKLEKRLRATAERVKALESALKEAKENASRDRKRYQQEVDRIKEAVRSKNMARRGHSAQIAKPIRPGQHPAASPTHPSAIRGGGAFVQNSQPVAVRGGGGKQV

The experiment deals with T1, endogenous CCDC28B (human (endogenous in Hek293)) (UniProt Q9BUN5).
T1 sequence: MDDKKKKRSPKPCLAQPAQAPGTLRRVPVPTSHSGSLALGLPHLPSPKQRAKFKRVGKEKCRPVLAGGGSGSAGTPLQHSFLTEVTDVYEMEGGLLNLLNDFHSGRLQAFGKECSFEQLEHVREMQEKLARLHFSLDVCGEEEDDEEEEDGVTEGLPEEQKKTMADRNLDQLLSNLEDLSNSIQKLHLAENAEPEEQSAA
The experiment is described as follows: co-IP; non-transfected cells; endogenous CCDC28B precipitated with biotinylated anti-CCDC28B VHH on Streptavidin-Agarose; western blots for KIF5B, KLC1, α-tubulin and CCDC28B. In general terms: A western blot detects proteins with antibodies after separation by electrophoresis.

No constants are given. Whether binding was seen depends on the method and setting. Binding seen in cells or lysates may run through a third protein. Some binding calls cover weakened binding; strength is not graded here.

For “kinesin 1 heavy chain KIF5B (from UniProt P33176 1-963)”, the binding entry is reported as “binds”.
